Assay results reported in patent publication US20170369592A1, “NOVEL ANTI-FIBROBLAST ACTIVATION PROTEIN (FAP) ANTIBODIES AND USES DERIVED THEREOF” (Mabimmune Diagnostics AG, priority 2015, published 2017).

B1: NI-206.27E8: recombinant human-derived monoclonal anti-FAP antibody, variable regions in FIG. 1 (antibody, V domains shown)
VH: EVQLVESGGGLVEPGGSLRLSCAASGFTFSDAWMNWVRQAPGKGLEWVGRIKTKSDGGTTDYAAPVRGRFSISRDDSKNTLFLEMNSLKTEDTAIYYCFITVIVVSSESPLDHWGQGTLVTVSS
VL: SYELTQPPSVSVSPGQTARITCSGDELPKQYAYWYQQKPGQAPVLVIYKDRQRPSGIPERFSGSSSGTTVTLTISGVQAEDEADYYCQSAYSINTYVIFGGGTKLTVL
B2: NI-206.12G4: recombinant human-derived monoclonal anti-FAP antibody, variable regions in FIG. 1 (antibody, V domains shown)
VH: EVQLVESGGGLVKPGGSLRLSCAASGFTFSDYYMSWIRQAPGKGLEWISYISSGSSYTNYADSVKGRFTISRDNAKKSVYLEVNGLTVEDTAVYYCARVRYGDREMATIGGFDFWGQGTLVTVSS
VL: B1 VL with E26A, K38S, R51S, Q52E, Y91D, I93G, N94G, Y96S, V97R
B3: NI-206.59B4: recombinant human-derived monoclonal anti-FAP antibody, variable regions in FIG. 1 (antibody, V domains shown)
VH: QVQLVQSGAEVKKPGASVKVSCKTSGYTFTDYYIHWVRQAPGQGLEWMGWINPNRGGTNYAQKFQGRVTMTRDTSIATAYMELSRLRSDDTAVYYCATASLKIAAVGTFDCWGQGTLVTVSS
VL: SYELTQPPSVSVSPGQTARITCSGDALSKQYAFWFQQKPGQAPILVIYQDTKRPSGIPGRFSGSSSGTTVTLTISGAQADDEADYYCQSADSSGTYVFGTGTKVTVL
B4: NI-206.82C2: recombinant human memory B cell-derived monoclonal anti-FAP IgG1 antibody, variable regions in FIG. 1A, FAP inhibitory (antibody, V domains shown)
VH: QVQLQQSGPGLVKPSQTLSLTCAISGDSVSSNSVTWNWIRQSPSRGLEWLGRTYYRSKWYNDYAVSVKGRITINPDTSKNQFYLQLKSVTPEDAAVYYCARDSSILYGDYWGQGTLVTVSS
VL: QAVLTQPSSLSASPGASASLTCTLPSGINVGTYRIFWFQQKPGSPPQYLLSYKSDSDNHQGSGVPSRFSGSKDASANAGILLISGLQSEDEADYYCMIWHSSAWVFGGGTKLTVL
B5: NI-206.22F7: recombinant human-derived monoclonal anti-FAP antibody, variable regions in FIG. 1 (antibody, V domains shown)
VH: EVQLVETGGGVVQPGRSLRLSCAASGFSFSTHGMYWVRQPPGKGLEWVAVISYDGSDKKYADSVKGRFTISRDNSKNTVYLEMSSVRAEDTALYYCFCRRDAFDLWGQGTMVTVSS
VL: SYVLTQPPSVSVSPGQTARITCSGDALPKKYAYWYQQKSGQAPVLVIYEDTKRPSGIPERFSGSSSGTMATLTISGAQVEDEADYYCYSTDSSGNYWVFGGGTEVTVL
B6: NI-206.17A6: recombinant human-derived monoclonal anti-FAP antibody, variable regions in FIG. 1 (antibody, V domains shown)
VH: QVQLQESGPGLVRSTETLSLTCLVSGDSINSHYWSWLRQSPGRGLEWIGYIYYTGPTNYNPSLKSRVSISLGTSKDQFSLKLSSVTAADTARYYCARNKVFWRGSDFYYYMDVWGKGTTVTVSS
VL: EIVLTQSPGTLSLSLGERATLSCRASQSLANNYLAWYQQKPGQAPRLLMYDASTRATGIPDRFSGSGSGTDFTLTISRLEPEDFAVYYCQQFVTSHHMYIFGQGTKVEIK

Test system: FAP
Test: Pepscan epitope mapping with overlapping, truncated and alanine-mutated FAP peptides
Format: binding, human
Settings: for binding epitope, sequence recognized on FAP: 188 linear 15-mer peptides, 11 amino acid overlap, antibody 1 μg/ml

Molecule	binding epitope, sequence recognized on FAP	minimum epitope region (peptides truncated by one amino acid from N- and C-terminus)
B1	169-NIYLKQR-175	–
B2	481-[…]-495	–
B3	53-SYKTFFP-59	–
B4	525-[…]-535	528-FDRSK-532
B5	381-[…]-391	–
B6	77-[…]-87	–

Changes are numbered by the printed parent chain.
